The list shows only some results of the screen, not a fair sample: it gathers tests that were run many times, whatever their T/C, doses with no T/C, and many T/C values between a quarter and a half above the control. Other doses and runs of a compound stand elsewhere. T/C gives the treated animals as a percentage of the vehicle group. Some entries give survivors of the animals treated and no T/C: the source holds a T/C of zero for them, seemingly a mark for toxic or unscored doses. Some doses without a T/C left all or most animals alive at the check, yet need not have been tolerated: survival well below the control is almost never listed, so the zero probably covers shortened survival too. Survivors were counted at the toxicity check, usually on the fifth day, unless a day is given; later deaths do not show. Schedules are NCI's codes, read here as Q, the interval in days (D) or hours (H), X, the number of doses. Some entries hold several experiments; the values are given in rising order. Some schedule codes hold Z or #, which are not explained here. Where survival is the endpoint, the PubChem record calls one and a half times the control and up active, and a quarter to a half above the control has no call in these data; cut-offs in other NCI protocols can differ. Counts like (3×) give the number of equal values in this list. Some T/C values are followed by the survivors on the day toxicity was checked, most often the fifth; without a count, all were alive then.
Test system: L1210 leukemia ip in BDF1 mice, survival T/C
Experiment: NCI In Vivo Anticancer Drug Screen. Data for tumor model L1210 Leukemia (intraperitoneal) in B6D2F1 (BDF1) mice
Conditions: T/C endpoint: mean survival time, higher T/C = longer survival
[1] = dose: 100.0 mg/kg/injection, schedule: Q01DX009 (ip), vehicle: saline with Tween-80
[2] = dose: 200.0 mg/kg/injection, schedule: Q01DX009 (ip), vehicle: saline with Tween-80
[3] = dose: 400.0 mg/kg/injection, schedule: Q01DX009 (ip), vehicle: saline with Tween-80
[4] = dose: 100.0 mg/kg/injection, schedule: Q04DX003 (ip), vehicle: saline
[5] = dose: 200.0 mg/kg/injection, schedule: Q04DX003 (ip), vehicle: saline
[6] = dose: 400.0 mg/kg/injection, schedule: Q04DX003 (ip), vehicle: saline
[7] = dose: 400.0 mg/kg/injection, schedule: Q04DX003 (ip), vehicle: saline with Tween-80
[8] = dose: 200.0 mg/kg/injection, schedule: Q04DX003 (ip), vehicle: Klucel (hydroxypropylcellulose) (HPC)
[9] = dose: 400.0 mg/kg/injection, schedule: Q04DX003 (ip), vehicle: Klucel (hydroxypropylcellulose) (HPC)
[10] = dose: 300.0 mg/kg/injection, schedule: Q01DX001 (ip), vehicle: saline
[11] = dose: 400.0 mg/kg/injection, schedule: Q01DX001 (ip), vehicle: saline with Tween-80

Question: Which survivor count (dose: 0.75 mg/kg/injection, schedule: Q01DX009 (ip), vehicle: DMSO) does the source give for `O=C(C=C(C(F)(F)F)C(F)(F)F)c1c2ccccc2cc2ccccc12` here?
Answer: 6 of 6

Question: And the survivor count (dose: 6.0 mg/kg/injection, schedule: Q01DX009 (ip), vehicle: DMSO)?
Answer: 5 of 6

Question: What about the survivor count (dose: 12.0 mg/kg/injection, schedule: Q01DX009 (ip), vehicle: DMSO) of the same compound?
Answer: 5 of 6

Question: What about the survivor count (dose: 25.0 mg/kg/injection, schedule: Q04DX003 (ip), vehicle: DMSO) of the same compound?
Answer: 5 of 6

Question: And the survivor count (dose: 50.0 mg/kg/injection, schedule: Q04DX003 (ip), vehicle: DMSO)?
Answer: 0 of 6

Question: And the survivor count (dose: 100.0 mg/kg/injection, schedule: Q04DX003 (ip), vehicle: DMSO)?
Answer: 2 of 6

Question: What about the survivor count (dose: 200.0 mg/kg/injection, schedule: Q04DX003 (ip), vehicle: DMSO) of the same compound?
Answer: 0 of 6

Question: And the survivor count (dose: 400.0 mg/kg/injection, schedule: Q04DX003 (ip), vehicle: DMSO)?
Answer: 0 of 6

Question: What does the source list for `NC(=S)NN=C1CCCCC1`?
Answer: survivor count (dose: 40.0 mg/kg/injection, schedule: Q01DX001 (ip), vehicle: carboxymethylcellulose (CMC)): 1 of 4; survivor count (dose: 80.0 mg/kg/injection, schedule: Q01DX001 (ip), vehicle: carboxymethylcellulose (CMC)): 0 of 4; survivor count [1]: 1 of 6; survivor count [2]: 0 of 6; survivor count [3]: 0 of 6

Question: For `CCN(CCc1ccc(N)cc1)C(Cc1ccccc1)c1cccc(OC)c1` (configuration not stated), which survivor count [4] is on record?
Answer: 5 of 6

Question: What about the survivor count [5] of the same compound?
Answer: 1 of 6

Question: And the survivor count [6]?
Answer: 0 of 6

Question: With `C=CCn1c(-c2cccs2)nc2c(=S)nc[nH]c21` as the compound, how does the survivor count (dose: 108.0 mg/kg/injection, schedule: Q01DX009 (ip), vehicle: steroid suspending solution) read?
Answer: 6 of 6

Question: And the survivor count (dose: 300.0 mg/kg/injection, schedule: Q01DX009 (ip), vehicle: steroid suspending solution)?
Answer: 5 of 6

Question: Which survivor count (dose: 300.0 mg/kg/injection, schedule: Q01DX001 (ip), vehicle: carboxymethylcellulose (CMC)) does the source give for `CC(C)CCC(CCC(C)C)NCC(C)OC(=O)c1ccc(N)cc1` (configuration not stated) here?
Answer: 0 of 6

Question: Which results are given for `N=C(N)N/N=C(\C=N\NC(=N)N)c1ccc(Oc2ccc(C(/C=N/NC(=N)N)=N\NC(=N)N)cc2)cc1`?
Answer: survivor count (dose: 15.0 mg/kg/injection, schedule: Q01DX Z (ip), vehicle: saline): 3 of 6; survivor count (dose: 30.0 mg/kg/injection, schedule: Q01DX Z (ip), vehicle: saline): 0 of 6; survivor count (dose: 60.0 mg/kg/injection, schedule: Q01DX Z (ip), vehicle: saline): 0 of 6; survivor count (dose: 120.0 mg/kg/injection, schedule: Q01DX Z (ip), vehicle: saline): 0 of 6

Question: For `COc1ccc(CN(CCO)S(C)(=O)=O)cc1`, which survivor count (dose: 100.0 mg/kg/injection, schedule: Q01DX009 (ip), vehicle: saline) is on record?
Answer: 6 of 6

Question: `Cc1ccc(C(=O)C(F)(F)F)cc1` was tested. Which survivor count [7] did it give?
Answer: 2 of 6

Question: What does the source list for `O=C(Nc1cccc(C2=NCCN2)c1)c1ccc(-c2ccc(C(=O)Nc3cccc(C4=NCCN4)c3)cc2)cc1`?
Answer: T/C (dose: 150.0 mg/kg/injection, schedule: Q01DX Z (ip), vehicle: methylcellulose (MC)): 125 % of control [5 of 6 alive]; T/C (dose: 200.0 mg/kg/injection, schedule: Q01DX Z (ip), vehicle: carboxymethylcellulose (CMC)): 129 % of control

Question: With `CC(=O)N(C)N` as the compound, how does the survivor count (dose: 200.0 mg/kg/injection, schedule: Q01DX009 (ip), vehicle: saline) read?
Answer: 2 of 6

Question: What about the survivor count [6] of the same compound?
Answer: 6 of 6

Question: Which survivor count [8] does the source give for `Nc1ncnc2nc(N=Nc3ccc(S(=O)(=O)N(CCCl)CCCl)cc3)[nH]c12` here?
Answer: 6 of 6

Question: What about the survivor count [9] of the same compound?
Answer: 6 of 6

Question: What does the source list for `O=C(Nc1ccc(F)cc1)Nc1ccc(Cl)cc1[N+](=O)[O-]`?
Answer: T/C [1]: 89 (2×), 94, 95 % of control; T/C [2]: 92, 95, 97 % of control; survivor count [2]: 6 of 6; survivor count [3]: 3 of 3 and 6 of 6

Question: For `Cc1ccc(N=Nc2ccc(C)cc2NC(=O)Nc2cc(C)ccc2C)cc1`, which survivor count (dose: 200.0 mg/kg/injection, schedule: Q04DX002 (ip), vehicle: saline with Tween-80) is on record?
Answer: 6 of 6

Question: How did the survivor count [9] turn out when `C[N+](C)(C)CC(=O)N/N=C\c1c(O)ccc2ccccc12` was run?
Answer: 0 of 3

Question: How did the survivor count (dose: 20.0 mg/kg/injection, schedule: Q01DX009 (ip), vehicle: Klucel (hydroxypropylcellulose) (HPC)) turn out when `Clc1ccc2c(c1)-c1ccccc1C1=NCCN12` was run?
Answer: 0 of 6

Question: And the survivor count (dose: 40.0 mg/kg/injection, schedule: Q04DX003 (ip), vehicle: Klucel (hydroxypropylcellulose) (HPC))?
Answer: 0 of 6

Question: And the survivor count (dose: 100.0 mg/kg/injection, schedule: Q04DX003 (ip), vehicle: Klucel (hydroxypropylcellulose) (HPC))?
Answer: 0 of 6

Question: And the survivor count [8]?
Answer: 0 of 6

Question: And the survivor count [9]?
Answer: 0 of 6

Question: Which results are given for `C[n+]1c(-c2ccc(Cl)cc2Cl)c2cc([N+](=O)[O-])ccc2c2ccccc21`?
Answer: survivor count (dose: 50.0 mg/kg/injection, schedule: Q04DX003 (ip), vehicle: water): 3 of 6; survivor count (dose: 100.0 mg/kg/injection, schedule: Q01DX009 (ip), vehicle: water): 2 of 6; survivor count (dose: 200.0 mg/kg/injection, schedule: Q04DX003 (ip), vehicle: water): 0 of 6; survivor count (dose: 400.0 mg/kg/injection, schedule: Q04DX003 (ip), vehicle: water): 1 of 6

Question: How did the survivor count (dose: 200.0 mg/kg/injection, schedule: Q01DX009 (ip), vehicle: gum acacia) turn out when `Cc1cccc(C)c1NC(=O)Nc1cccc2ccccc12` was run?
Answer: 6 of 6

Question: How did the survivor count (dose: 100.0 mg/kg/injection, schedule: Q01DX001 (ip), vehicle: saline) turn out when `Nc1ccc(S(=O)(=O)NCc2nccs2)cc1` was run?
Answer: 2 of 6

Question: What about the survivor count (dose: 200.0 mg/kg/injection, schedule: Q01DX001 (ip), vehicle: saline) of the same compound?
Answer: 0 of 6

Question: And the survivor count (dose: 400.0 mg/kg/injection, schedule: Q01DX001 (ip), vehicle: saline)?
Answer: 0 of 6

Question: `CCN(CC)CC(O)c1ccnc2c(N)cc(OC)cc12` (configuration not stated) was tested. Which survivor count (dose: 300.0 mg/kg/injection, schedule: Q01DX001 (ip), vehicle: acetone) did it give?
Answer: 0 of 6

Question: How did the survivor count [4] turn out when `Nc1ccc(C(=O)CCCN2CCCCC2)cc1` was run?
Answer: 3 of 6

Question: What about the survivor count [5] of the same compound?
Answer: 0 of 6

Question: And the survivor count [6]?
Answer: 0 of 6

Question: What does the source list for `CS(=O)(=O)c1nc2ccc([N+](=O)[O-])cc2s1`?
Answer: survivor count (dose: 200.0 mg/kg/injection, schedule: Q04DX002 (ip), vehicle: saline): 0 of 3; survivor count (dose: 400.0 mg/kg/injection, schedule: Q04DX002 (ip), vehicle: saline): 0 of 3

Question: How did the survivor count (dose: 200.0 mg/kg/injection, schedule: Q01DX001 (ip), vehicle: carboxymethylcellulose (CMC)) turn out when `O=C1NCCc2c1sc1ccccc21` was run?
Answer: 4 of 4

Question: How did the survivor count [10] turn out when `NCCCP(c1ccccc1)c1ccccc1` was run?
Answer: 1 of 6

Question: `CCCP(=S)(CCC)CCC` was tested. Which survivor count [11] did it give?
Answer: 2 of 6

Question: For `COc1ccc2c(c1)C/C(=N\O)C2=O`, which survivor count (dose: 200.0 mg/kg/injection, schedule: Q04DX003 (ip), vehicle: saline with Tween-80) is on record?
Answer: 1 of 6

Question: And the survivor count [7]?
Answer: 0 of 6

Question: What does the source list for `CCCCCCCCP(=O)(CCCC)CCCCCCCC`?
Answer: survivor count (dose: 200.0 mg/kg/injection, schedule: Q01DX001 (ip), vehicle: saline with Tween-80): 0 of 6; survivor count [11]: 0 of 6

Question: Which survivor count [10] does the source give for `Cc1ccc(N=Nc2sc(N)nc2C)c(C)c1` here?
Answer: 0 of 6

Question: With `O=C(C1C(c2ccccc2)C1c1ccccc1)N(CCCl)Cc1ccccc1` (configuration not stated) as the compound, how does the survivor count (dose: 100.0 mg/kg/injection, schedule: Q04DX002 (ip), vehicle: Klucel (hydroxypropylcellulose) (HPC)) read?
Answer: 3 of 3

Question: What about the survivor count (dose: 200.0 mg/kg/injection, schedule: Q04DX002 (ip), vehicle: Klucel (hydroxypropylcellulose) (HPC)) of the same compound?
Answer: 3 of 3

Question: What about the survivor count (dose: 400.0 mg/kg/injection, schedule: Q04DX002 (ip), vehicle: Klucel (hydroxypropylcellulose) (HPC)) of the same compound?
Answer: 3 of 3
